Reference: PubChem BioAssay AID624297 (National Center for Advancing Translational Sciences (NCATS), 2012)
Screen size: about 340,000 compounds; about 6,200 (1.8%) were called active. The shares of active, inactive and inconclusive entries below differ from those in the screen. Calls follow the shape of the dose curve; as a rule, active = well fitted activation curve with a large enough effect; inconclusive = small, poorly fitted or top-dose-only effect; inactive = no such curve, though single readings can be large or run the other way. Potencies of inconclusive entries are doubtful fits and often do not repeat.
Potency is read from the fitted curve at half-maximal effect.

Assay: A quantitative high throughput screen for small molecules that induce DNA re-replication in SW480 colon adenocarcinoma cells. Also: nearly all actives have a fitted effect of over 55% in size. As to re-replication activation: % of control where 0% means no effect.
Conditions: Hoechst DNA content imaging, 48 h; re-replication activation: at 46.1 µM (top of the series) unless noted
Procedure, shortened: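 Quantitative HTS format with DMSO vehicle controls; 48 hr drug incubation at 37 C, then 40 min Hoechst staining and scanning imager measurement at 405 nm excitation.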
In the case of `Cc1cc2nc(C3CCN(CC4COc5ccccc5O4)CC3)[nH]c2cc1C` (centres undefined), the Potency is reported as inconclusive: 23.1 µM [activator, single point]. With `C=CC[n+]1c(-c2ccc(Cl)cc2Cl)csc1Nc1c(C)n(C)n(-c2ccccc2)c1=O` the Potency was inconclusive: 32.6 µM [activator, single point]. In the case of `Cc1cc(Br)cc(Br)c1OCC(=O)NNC(=O)Nc1ccccc1`, the “re-replication activation” value is reported as inactive: -134%. In the case of `COc1ccccc1CNC(=O)CCS(=O)(=O)c1ccc2c(c1)CC(C)N2C(=O)C1CC1` (centres undefined), the Potency is reported as inconclusive: 20.6 µM [activator, partial curve, poor fit]. In the case of `Nc1ccc2cccc(O)c2c1`, the Potency is reported as inconclusive: 20.6 µM [activator, single point]. With `CN(C)C(=O)c1cc2cc([N+](=O)[O-])ccc2s1` the Potency was inconclusive: 29.1 µM [activator, single point]. For `O=[N+]([O-])c1cc(CN2CCN(c3cccc(C(F)(F)F)c3)CC2)c2cccnc2c1O`, the Potency was inconclusive: 5.8 µM [activator, single point]. With `COc1cc(OC)cc(C(=O)N[C@H](C(=O)Nc2nc3c(s2)CCCC3)C(C)C)c1` the Potency was inconclusive: 29.1 µM [activator, single point]. In the case of `O=S(=O)(c1cc(C(F)(F)F)ccc1Cl)N1CCN(c2ncnc3ccccc23)CC1`, the Potency is reported as inconclusive: 29.1 µM [activator, single point]. For `O=[N+]([O-])c1ccccc1S(=O)(=O)Nc1cccnc1`, the “re-replication activation” value was inactive: 1.66%. For `Cc1ccc(C)n1-c1ccc(C(=O)NCc2ccncc2)cc1`, the Potency was inconclusive: 29.1 µM [activator, partial curve, poor fit]. In the case of `COc1cc(/C=N/NC(=O)Cc2ccccc2)ccc1Oc1ccc([N+](=O)[O-])cc1[N+](=O)[O-]`, the “re-replication activation” value is reported as inactive: 26.2%. For `CC(=O)c1cn(Cc2ccccc2)c(=O)[nH]c1=O`, the Potency was inconclusive: 29.1 µM [activator, single point]. With `COc1ccc2nc(SCC(=O)NC3CCCCC3)[nH]c2c1` the “re-replication activation” value was inactive: -5.44%. In the case of `COc1cc(NC(=O)C/C(C)=N/NC(=O)c2cccs2)c(OC)cc1Cl`, the Potency is reported as inconclusive: 0.651 µM [activator, partial curve, poor fit]. With `O=C(CN(C(=O)c1csnn1)c1ccc2c(c1)OCCO2)NCc1ccccc1` the “re-replication activation” value was inactive: -8.1%. For `CCN1CCc2c(sc(NC(=O)c3ccc(S(=O)(=O)N4CCCC4)cc3)c2C(=O)NC)C1`, the Potency was inconclusive: 29.1 µM [activator, single point]. In the case of `COc1ccc(C)cc1-n1cnnn1`, the “re-replication activation” value is reported as inactive: 5.56%. In the case of `Cc1ccc2c(c1)CC(C)N2S(=O)(=O)c1nnc(NC(=O)CC(C)C)s1` (centres undefined), the Potency is reported as inconclusive: 29.1 µM [activator, partial curve, poor fit].
